Measured values published in PubChem BioAssay AID2685 (National Center for Advancing Translational Sciences (NCATS), 2010).
Some of the results follow. The main result of the screen is listed elsewhere. These columns were measured beside it and carry no call. Compounds called inactive in the main read-out are mostly missing here. The note in brackets gives the kind of curve behind each potency; many fits are weak.

Test: qHTS Assay for Lipid Storage Modulators in Drosophila S3 Cells;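 as to cell number change: cells counted by Cell Tracker Red CMTPX staining in the red channel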
Conditions: BODIPY lipid droplet fluorescence, 18-24 h; for cell number change: measured here: cell count max response, cells fed with added oleic acid
Method in brief: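 Laser-scanning cytometry quantifies lipid droplet accumulation (500–530 nm total intensity; droplet/cell object ratio) in oleic acid-fed (400 uM added) Drosophila S3 cells treated with a concentration series. 20 uM Triacsin C defined 100% inhibition.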

[1] = measured here: lipid fluorescence (Fed channel) AC50, cells fed with added oleic acid
[2] = measured here: cell number channel AC50, cells fed with added oleic acid

Structure (SMILES) | cell number change [%] | AC50 [1] | AC50 [2]
CC(C)CN(C(=O)COC(=O)CCCc1c[nH]c2ccccc12)c1c(N)n(Cc2ccccc2)c(=O)[nH]c1=O | -21.6 | – | –
CC(C)CC(=O)Nc1cccc(C(C)O)c1 (centres undefined) | – | 0.00651 µM [falling, full curve, poor fit] | –
Cc1c(C(=O)N/N=C/c2cccs2)nnn1-c1nonc1N | 10.1 | 29.1 µM [falling, single point] | –
CCOc1ccc(-c2noc(CCCC(N)=O)n2)cc1OC | – | 3.66 µM [rising, single point] | 1.84 µM [rising, partial curve]
Cc1ccc(/C=C2\NC(=S)NC2=O)cc1[N+](=O)[O-] | 20.3 | 16.4 µM [rising, partial curve] | –
C=CCN(c1ccccc1Cl)S(=O)(=O)c1cccc(C(=O)NCCc2ccc(OC)cc2)c1 | 26.1 | – | –
CCCc1c(C(=O)N/N=C(\C)CCc2ccccc2)nnn1-c1nonc1N | 24 | 5.17 µM [falling, partial curve, poor fit] | –
NC(=O)C1CCN(c2oc(/C=C/c3ccccc3)nc2S(=O)(=O)c2ccccc2)CC1 | -5.81 | 1.46 µM [falling, single point] | –
CCOc1ccc(C2C3=C(Nc4nc(N)[nH]c(=O)c42)c2ccccc2C3=O)cc1 (centres undefined) | 36.8 | 14.6 µM [rising, partial curve, poor fit] | 7.31 µM [rising, partial curve, poor fit]
Cc1[nH]n(-c2ccccc2)c(=O)c1/C=N/N1C(=O)c2cccc3cccc(c23)C1=O | -17.6 | 23.1 µM [falling, single point] | –
CCc1nccn1S(=O)(=O)c1ccc(C)c(C)c1 | -28.4 | 0.651 µM [falling, full curve] | 0.651 µM [falling, full curve]
O=C1CCCC(=O)C1=Cc1c[nH]c2ccccc12 | – | 6.51 µM [falling, single point] | –
Cc1onc(-c2c(F)cccc2Cl)c1C(=O)NCc1ccc(S(N)(=O)=O)cc1 | 35.3 | 1.16 µM [rising, full curve] | 1.46 µM [rising, full curve, poor fit]
N#CCCCCn1c(-c2cncs2)nc2ccccc21 | -1.94 | 6.51 µM [falling, single point] | –
Cc1sc2nc(CN3CCCCC3)nc(N3CCN(C(=O)c4ccco4)CC3)c2c1C | 38.4 | 29.1 µM [rising, single point] | 0.366 µM [rising, full curve, poor fit]
CCOC(=O)C1C(=O)C=C(c2ccc(C)cc2)CC1c1ccccc1 (centres undefined) | – | 25.9 µM [rising, single point] | –
COc1ccc(/C=C(\C#N)c2c[nH]c3ccccc23)cc1 | -43.4 | – | 2.91 µM [falling, partial curve]
COc1ccccc1N(C(=O)CNC(=O)c1ccco1)C(C(=O)NC1CCCCC1)c1ccncc1 (centres undefined) | -22.9 | – | –
CCOCc1c(C(=O)OCC(=O)Nc2ccc(C)c(S(=O)(=O)N(C)C)c2)oc2ccccc12 | 17 | 1.03 µM [rising, partial curve] | –
COc1ccccc1/C=C(/C(=O)OCC(=O)NCc1ccccc1)c1ccccc1 | -48.2 | – | –

One compound at a time, from the list above. Values in the order: cell number change [%]	AC50 [1]	AC50 [2]
COc1ccccc1/C=C(/C(=O)OCC(=O)NCc1ccccc1)c1ccccc1 is entered as -48.2	–	–
O=C1CCCC(=O)C1=Cc1c[nH]c2ccccc12 is entered as –	6.51 µM [falling, single point]	–
CCOc1ccc(C2C3=C(Nc4nc(N)[nH]c(=O)c42)c2ccccc2C3=O)cc1 (centres undefined) is entered as 36.8	14.6 µM [rising, partial curve, poor fit]	7.31 µM [rising, partial curve, poor fit]

Carrying on.

Structure (SMILES) | cell number change [%] | AC50 [1] | AC50 [2]
CCCOC(=O)c1ccc(NC(=O)c2cnccn2)cc1 | 16.1 | – | –
Cc1ccc(NC(=O)CSc2nc3ncc(Br)cc3[nH]2)cc1C | -8.87 | 0.206 µM [rising, partial curve, poor fit] | –
CCOC(=O)c1cn(-c2ccc(F)c(F)c2F)c2c(F)c(F)c(F)cc2c1=O | 12.2 | – | –
COc1ccc(/C=C2\SC(=O)N(CCC(=O)Nc3ccccc3)C2=O)cc1OC | -59.1 | 32.6 µM [falling, partial curve, poor fit] | 29.1 µM [falling, single point]
O=C(CCC(=O)Nc1cc(C(F)(F)F)ccc1Cl)N/N=C\c1cc([N+](=O)[O-])ccc1O | -7.24 | 3.66 µM [falling, single point] | –
CCN(C(=O)CCNC(=O)Cn1cnc2ccccc2c1=O)c1cccc(Cl)c1 | -6.35 | – | –
COc1ccccc1C(C(=O)NC1CCCCC1)N(C(=O)c1csnn1)C1CC1 (centres undefined) | -1.9 | – | –
O=C(O)COc1ccccc1/C=N/NC(=O)c1cc2ccccc2cc1O | 24.9 | 0.00461 µM [rising, full curve, poor fit] | –
Cc1ccc(/C=N/NC(=O)CCn2nc(C)cc2C)c(C)c1 | 0.865 | – | –
O=C(O)c1ccccc1-c1ccccc1C(=O)Nc1ccc2c(c1)CCC2 | -9.49 | 29.1 µM [rising, single point] | –
CCc1ccccc1NC(=O)CN1CCN(C(=O)c2ccc(OCc3cn4ccccc4n3)cc2)CC1 | 15 | – | –
CCCn1cc(S(=O)(=O)c2ccc(C)cc2)c(=O)c2cc(OC)c(OC)cc21 | 8.25 | – | –
COc1ccc(-n2ccnc2)cc1 | 127 | – | –
CC(C)C(=O)N1CCN(CCN=CC2=C(O)CC(c3ccco3)CC2=O)CC1 (centres undefined) | – | 0.164 µM [falling, full curve, poor fit] | 0.517 µM [falling, full curve]
NS(=O)(=O)c1ccc(-c2ccc(C=C3C(=O)c4ccccc4C3=O)o2)cc1 | 18.9 | – | –
O=C(NC1C2CCCC1CN(C1CC1)C2)c1ccc(Cl)cc1 (centres undefined) | – | 29.1 µM [falling, single point] | –
O=c1[nH]cnc2nc3n(c12)CCCCC3 | -6.9 | 4.11 µM [falling, partial curve] | –
O=C(COC(=O)c1c(F)cccc1Cl)NC(=O)Nc1ccc2c(c1)OCCO2 | 17 | 23.1 µM [rising, partial curve] | –
CCN(CC)C(=O)c1ccc(-c2nnc(Nc3cccc(O)c3)c3ccccc23)cc1 | -32.8 | 18.4 µM [falling, single point] | 13 µM [falling, partial curve, poor fit]
CC(=O)Nc1nc2ccc(S(=O)(=O)N3CCCCC3)cc2s1 | 2.96 | 0.00411 µM [rising, full curve, poor fit] | –
